Laboratory results from paper PMC4381359.

The chains behind the UniProt entries cited, without tags or fusion partners. Where a name states a change or a piece, a line headed by the entry shows the natural chain unless it says otherwise.
UniProt Q13153: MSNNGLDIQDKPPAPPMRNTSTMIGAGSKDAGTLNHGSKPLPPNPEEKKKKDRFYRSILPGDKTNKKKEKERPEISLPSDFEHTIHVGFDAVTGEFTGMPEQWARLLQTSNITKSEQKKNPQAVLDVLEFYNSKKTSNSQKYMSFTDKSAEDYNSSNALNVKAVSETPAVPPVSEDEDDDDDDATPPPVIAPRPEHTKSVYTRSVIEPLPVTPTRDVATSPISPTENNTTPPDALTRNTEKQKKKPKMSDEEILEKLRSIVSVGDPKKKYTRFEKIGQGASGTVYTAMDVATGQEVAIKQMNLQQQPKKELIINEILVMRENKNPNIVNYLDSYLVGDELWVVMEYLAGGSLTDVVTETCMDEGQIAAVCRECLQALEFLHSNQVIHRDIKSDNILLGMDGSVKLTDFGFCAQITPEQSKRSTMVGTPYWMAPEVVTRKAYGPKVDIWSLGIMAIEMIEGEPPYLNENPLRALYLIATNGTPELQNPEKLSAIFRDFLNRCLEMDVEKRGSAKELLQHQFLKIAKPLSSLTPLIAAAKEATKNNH
UniProt P60953: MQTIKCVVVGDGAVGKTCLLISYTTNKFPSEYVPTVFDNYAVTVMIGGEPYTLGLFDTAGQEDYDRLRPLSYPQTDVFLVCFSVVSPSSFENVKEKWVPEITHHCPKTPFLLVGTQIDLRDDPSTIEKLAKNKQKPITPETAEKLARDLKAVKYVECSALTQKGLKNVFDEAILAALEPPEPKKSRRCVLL

Target: GST-tagged p21 binding domain of PAK1 (UniProt Q13153)
Assay: pull-down; GST-PBD coupled to glutathione beads; 500 ug of cleared A2780 extracts (24 h after transfection with pcDNA3.1 or pcDNA3.1/eIF6) incubated over-night at 4°C; cdc42 detected by Western blotting; only the target purified

cdc42 (from UniProt P60953 1-191)
binding: binds

These are yes or no findings as the source states them, for the method shown. Binding seen in cells or lysates may run through a third protein. Binding can be weak; no strength is given.
